# Source: PubChem BioAssay AID280 (DTP/NCI, 2004)
# The list is a part of this screen's results and no random one: it is rich in T/C values a quarter to a half above the control, in often repeated tests (any T/C) and in doses without a T/C. Other doses and runs of a compound stand elsewhere. T/C gives the treated animals as a percentage of the vehicle group. Some entries give survivors of the animals treated and no T/C: the source files T/C as zero there, which appears to mark a toxic dose or a test without result, not a measured value. Some doses without a T/C left all or most animals alive at the check, yet need not have been tolerated: survival well below the control is almost never listed, so the zero probably covers shortened survival too. Counts of survivors are from the toxicity check (mostly the fifth day) where no day follows; animals may have died later. Schedules are NCI's codes, taken here to give the interval after Q, in days (D) or hours (H), and the number of doses after X. Some entries were tested several times; the values are given in rising order. For survival time, this PubChem deposit counts one and a half times the control or more as active, and values a quarter to a half above the control carry no call in these data; other NCI protocols may use other cut-offs. Some T/C values are followed by the survivors on the day toxicity was checked, most often the fifth; where none is given, no animal had died by that day.
# System: nude mice, LOX melanoma ip, survival T/C
# Test: NCI In Vivo Anticancer Drug Screen. Data for tumor model Human Amelanotic Melanoma (LOX) (intraperitoneal) in NU/NU BALB/C (nude) mice
# Details: T/C endpoint: median survival time, schedule: Q04DX003 (ip), higher T/C = longer survival
# Experimental: The antitumor activity of compounds was measured in mice bearing transplantable tumors. Survival or tumor size were measured and the results are expressed as the measurement made in the treated group (T) divided by the measurement made in the vehicle treated control group (C). The tumor model used in this assay is Human Amelanotic Melanoma (LOX) (intraperitoneal) in NU/NU BALB/C (nude) mice
# [1] = dose: 150.0 mg/kg/injection, vehicle: saline with Tween-80
# [2] = dose: 300.0 mg/kg/injection, vehicle: saline with Tween-80
# [3] = dose: 600.0 mg/kg/injection, vehicle: saline with Tween-80
# [4] = dose: 1200.0 mg/kg/injection, vehicle: saline with Tween-80
# [5] = dose: 1200.0 mg/kg/injection, vehicle: suspension in saline
# [6] = dose: 600.0 mg/kg/injection, vehicle: suspension in saline
# [7] = dose: 800.0 mg/kg/injection, vehicle: Klucel (hydroxypropylcellulose) (HPC)
# [8] = dose: 75.0 mg/kg/injection, vehicle: saline with Tween-80
# [9] = dose: 400.0 mg/kg/injection, vehicle: water
# [10] = dose: 300.0 mg/kg/injection, vehicle: suspension in saline
# [11] = dose: 600.0 mg/kg/injection, vehicle: Klucel (hydroxypropylcellulose) (HPC)
# [12] = dose: 1200.0 mg/kg/injection, vehicle: Klucel (hydroxypropylcellulose) (HPC)
# [13] = dose: 25.0 mg/kg/injection, vehicle: saline with Tween-80
# [14] = dose: 50.0 mg/kg/injection, vehicle: saline with Tween-80
smiles,measurement,setting,value
C=COC(=O)C(Cc1ccccc1)NC(=O)OCc1ccccc1 (configuration not stated),survivor count,[1],6 of 6 on day 10
same,survivor count,[2],6 of 6 on day 10
same,survivor count,[3],5 of 6 on day 10
same,survivor count,[4],2 of 6 on day 10
N/C(=N/N=C/c1cc(Br)cc(Br)c1O)NO,survivor count,"dose: 200.0 mg/kg/injection, vehicle: suspension in saline",2 of 6 on day 10
same,survivor count,"dose: 400.0 mg/kg/injection, vehicle: suspension in saline",0 of 6 on day 10
N[C@@H](Cc1c[nH]c2ccccc12)C(=O)Nc1nncs1,survivor count,[5],0 of 6 on day 10
C=Cc1cc(OC)c2c(c1)c(=O)oc1c2cc(OC)c2c(O)ccc(C3OC(C)C(O)C(C)(O)C3O)c21 (configuration not stated),T/C,"dose: 37.5 mg/kg/injection, vehicle: DMSO",133 % of control
same,T/C,"dose: 75.0 mg/kg/injection, vehicle: DMSO",145 % of control [5 of 6 alive on day 10]
same,T/C,"dose: 150.0 mg/kg/injection, vehicle: DMSO",127 % of control
same,survivor count,"dose: 300.0 mg/kg/injection, vehicle: DMSO",3 of 6 on day 10
CC1C(c2ccccc2)OC(N2CCOCC2)C(C)(C)CN1C (configuration not stated),survivor count,[3],0 of 6 on day 10
same,survivor count,[4],0 of 6 on day 10
O=C(CCCCCCC(=O)ON1C(=O)CCC1=O)ON1C(=O)CCC1=O,survivor count,[3],0 of 6 on day 10
same,survivor count,[4],0 of 6 on day 10
Cc1nc2c(N)cc(Cl)cc2[nH]1,survivor count,"dose: 400.0 mg/kg/injection, vehicle: saline with Tween-80",1 of 6 on day 10
same,survivor count,"dose: 800.0 mg/kg/injection, vehicle: saline with Tween-80",0 of 6 on day 10
CC1=NN(c2cccc(S(=O)(=O)O)c2)C(=O)C1N=Nc1cc(Cl)cc(S(=O)(=O)O)c1O.CC1=NN(c2cccc(S(=O)(=O)O)c2)C(=O)C1N=Nc1cc(Cl)cc(S(=O)(=O)O)c1O.[Cr] (configuration not stated),survivor count,[6],0 of 6 on day 10
same,survivor count,[5],0 of 6 on day 10
CNC(=S)SC1=NS(=O)(=O)c2ccccc2N1,survivor count,"dose: 400.0 mg/kg/injection, vehicle: Klucel (hydroxypropylcellulose) (HPC)",2 of 6 on day 10
same,survivor count,[7],0 of 6 on day 10
CCOC(=O)Nc1cc2c(c(N)n1)N=C(c1ccccc1)CN2,survivor count,"dose: 15.0 mg/kg/injection, vehicle: saline with Tween-80",1 of 6 on day 10
CCN(CC)c1ccc2[nH]c3c(C(N)=O)cc(=O)c(=O)c=3oc2c1,T/C,[8],125 % of control
same,survivor count,[3],0 of 6 on day 10
same,survivor count,[4],0 of 6 on day 10
CCCCCCCCCCCCCCCCCCOCC(CO)OC (configuration not stated),T/C,[2],126 % of control
same,T/C,[3],129 and 131 % of control
same,survivor count,[4],0 of 6 on day 10 and 2 of 6 on day 10
CCC(=O)[O][Bi]([c]1ccccc1)[c]1ccccc1,survivor count,"dose: 50.0 mg/kg/injection, vehicle: Klucel (hydroxypropylcellulose) (HPC)",3 of 6 on day 10
Cc1c(O)/c(=C\O)c2nc3c(=O)ccc(C(=O)NCCN(C)C)c3[nH]c2c1=O,survivor count,"dose: 240.0 mg/kg/injection, vehicle: water",2 of 6 on day 10
same,T/C,[9],148 % of control [5 of 6 alive on day 10]
same,survivor count,[9],1 of 6 on day 10 and 2 of 6 on day 10
same,survivor count,"dose: 667.0 mg/kg/injection, vehicle: water",0 of 6 on day 10
O=C1C2=C(C(=O)c3cnccc31)C1C=CC2CC1 (configuration not stated),survivor count,"dose: 12.5 mg/kg/injection, vehicle: DMSO",6 of 6 on day 10
same,survivor count,"dose: 50.0 mg/kg/injection, vehicle: DMSO",6 of 6 on day 10
same,survivor count,"dose: 100.0 mg/kg/injection, vehicle: DMSO",2 of 6 on day 10
same,survivor count,"dose: 200.0 mg/kg/injection, vehicle: DMSO",0 of 6 on day 10
Cc1ccc2nc(-c3ccc4nc(-c5ccc(N=Nc6ccc(-c7nc8ccc(-c9nc%10ccc(C)c(S(=O)(=O)O)c%10s9)cc8s7)cc6)cc5)sc4c3)sc2c1S(=O)(=O)O,survivor count,[10],5 of 6 on day 10
same,survivor count,[6],2 of 6 on day 10
same,survivor count,[5],0 of 6 on day 10
CCOC(=O)Nc1cc2c(c(N)n1)N=C(c1ccc3ccccc3c1)CN2,T/C,"dose: 111.11 mg/kg/injection, vehicle: saline with Tween-80",141 % of control
same,survivor count,"dose: 309.0 mg/kg/injection, vehicle: saline with Tween-80",2 of 6 on day 10
O=C(NC(Cc1ccc(I)cc1)C(=O)O)c1cccc(Br)c1 (configuration not stated),survivor count,[11],1 of 6 on day 10
same,survivor count,[7],3 of 6 on day 10
same,survivor count,[12],0 of 6 on day 10
O=C(Nc1cccc(Cl)c1)ON1C(=O)C2C(C1=O)C1(Cl)C(Cl)C(Cl)C2(Cl)C1(Cl)Cl (configuration not stated),survivor count,[4],0 of 6 on day 10
S=C(N/N=C1/CCCC/C1=N/NC(=S)N1CCOCC1)N1CCOCC1,T/C,[13],138 % of control [5 of 6 alive on day 10]
same,survivor count,[14],3 of 6 on day 10
O=c1[nH]cnc2c1nnn2C1OC(CO)C(O)C1O (configuration not stated),T/C,"dose: 75.0 mg/kg/injection, vehicle: suspension in saline",128 % of control
same,T/C,"dose: 150.0 mg/kg/injection, vehicle: suspension in saline",137 % of control
same,T/C,[10],128 and 145 % of control
same,T/C,"dose: 500.0 mg/kg/injection, vehicle: suspension in saline",147 % of control
same,T/C,[6],144 % of control
same,T/C,[5],141 % of control
same,T/C,"dose: 1388.0 mg/kg/injection, vehicle: suspension in saline",138 % of control
Nc1ccc2ccc(NS(=O)(=O)N3CCCCC3)cc2c1,T/C,[8],144 % of control
same,T/C,[1],125 % of control
same,survivor count,[4],0 of 6 on day 10
Cc1cc(O)c2c(c1O)C(=O)C13C(=C2O)C(=O)C2C(O)C1C1C(O)C3C(=O)C3=C(O)c4c(O)cc(C)c(O)c4C(=O)C321 (configuration not stated),T/C,"dose: 3.13 mg/kg/injection, vehicle: saline with Tween-80",135 % of control
same,survivor count,"dose: 12.5 mg/kg/injection, vehicle: saline with Tween-80",3 of 6 on day 10
same,survivor count,[13],0 of 6 on day 10
same,survivor count,[14],0 of 6 on day 10
CN=C(NC#N)NCCSCc1nc[nH]c1C,survivor count,[11],0 of 6 on day 10
same,survivor count,[12],0 of 6 on day 10
O=C(O)C1CC(O)CN1 (configuration not stated),T/C,"dose: 150.0 mg/kg/injection, vehicle: saline",129 % of control
Cc1ccc(C(=Nc2ccccc2)N=P(c2ccccc2)(c2ccccc2)c2ccccc2)cc1,survivor count,"dose: 200.0 mg/kg/injection, vehicle: saline with Tween-80",2 of 6 on day 10
Cc1cc(=NO)cc(C)n1O,survivor count,"dose: 1200.0 mg/kg/injection, vehicle: distilled water + alcohol",1 of 6 on day 10
